In PubChem BioAssay AID248 (DTP/NCI, 2004):
The list is a part of this screen's results and no random one: it is rich in T/C values a quarter to a half above the control, in often repeated tests (any T/C) and in doses without a T/C. Further doses and runs are listed elsewhere. T/C is the treated group as % of the vehicle group. Some entries give survivors of the animals treated and no T/C: the source files T/C as zero there, which appears to mark a toxic dose or a test without result, not a measured value. Some doses without a T/C left all or most animals alive at the check, yet need not have been tolerated: survival well below the control is almost never listed, so the zero probably covers shortened survival too. Survivors were counted at the toxicity check, usually on the fifth day, unless a day is given; later deaths do not show. Schedule codes are those of the source, read here as Q, the interval in days (D) or hours (H), X, the number of doses. Some structures stand for samples that the source files as different forms (salt, stereo form or complex); doses refer to the form tested. Some schedules carry Z or #; the key to these is not given. Where survival is the endpoint, this PubChem deposit counts one and a half times the control or more as active, and values a quarter to a half above the control carry no call in these data; other NCI protocols may use other cut-offs.

Tested on: L1210 leukemia ip in BDF1 mice, survival T/C
Assay: NCI In Vivo Anticancer Drug Screen. Data for tumor model L1210 Leukemia (intraperitoneal) in B6D2F1 (BDF1) mice
Settings: T/C endpoint: mean survival time, higher T/C = longer survival
[1] = dose: 400.0 mg/kg/injection, schedule: Q01DX001 (ip), vehicle: saline
[2] = dose: 400.0 mg/kg/injection, schedule: Q01DX009 (ip), vehicle: saline with Tween-80
[3] = dose: 400.0 mg/kg/injection, schedule: Q04DX002 (ip), vehicle: saline
[4] = dose: 400.0 mg/kg/injection, schedule: Q04DX003 (ip), vehicle: saline
[5] = dose: 100.0 mg/kg/injection, schedule: Q01DX009 (ip), vehicle: Klucel (hydroxypropylcellulose) (HPC)
[6] = dose: 400.0 mg/kg/injection, schedule: Q04DX003 (ip), vehicle: saline with Tween-80

With `O=C(/C=C(\C(=O)c1ccccc1)c1ccccc1)c1ccccc1` the survivor count (dose: 100.0 mg/kg/injection, schedule: Q01DX001 (ip), vehicle: saline with Tween-80) was 2 of 6, the survivor count (dose: 400.0 mg/kg/injection, schedule: Q01DX001 (ip), vehicle: saline with Tween-80) was 6 of 6 and the survivor count [1] was 6 of 6.

With `N#CCCCSC(=N)N` the survivor count [1] was 0 of 6.

With `COC(OC)C1C=CC=CC=C1` the survivor count (dose: 100.0 mg/kg/injection, schedule: Q01DX009 (ip), vehicle: saline with Tween-80) was 5 of 6 and the survivor count [2] was 1 of 6.

For `COc1ccc(CCN)cc1`, the survivor count (dose: 200.0 mg/kg/injection, schedule: Q04DX002 (ip), vehicle: saline) was 3 of 3 and the survivor count [3] was 0 of 3.

With `Nc1nc2c(c(=O)[nH]1)N=C(CNc1ccc(C(=O)NC(CCC(=O)O)C(=O)O)cc1)CN2` (centres undefined) the T/C (dose: 1.0 mg/kg/injection, schedule: Q01DX009 (ip), vehicle: sodium bicarbonate) was 130 % of control.

`O=C1C=CC(=O)c2[nH]c(=O)ccc21` was tested, and the survivor count (dose: 20.0 mg/kg/injection, schedule: Q01DX001 (ip), vehicle: saline) was 0 of 4, the survivor count (dose: 40.0 mg/kg/injection, schedule: Q01DX001 (ip), vehicle: saline) was 0 of 4 and the survivor count (dose: 80.0 mg/kg/injection, schedule: Q01DX001 (ip), vehicle: saline) was 0 of 4. For the same molecule, the survivor count (dose: 100.0 mg/kg/injection, schedule: Q01DX001 (ip), vehicle: saline) was 0 of 4, the survivor count (dose: 200.0 mg/kg/injection, schedule: Q01DX001 (ip), vehicle: saline) was 0 of 4 and the survivor count [1] was 0 of 4.

In the case of `O=c1[nH][nH]c(=O)n1O`, the survivor count (dose: 200.0 mg/kg/injection, schedule: Q01DX009 (ip), vehicle: acetone) is reported as 6 of 6 and the survivor count [2] is reported as 6 of 6.

For `CCOC(=O)c1c(C)c(-c2ccccc2F)nc2ccccc12`, the survivor count [1] was 3 of 6.

In the case of `O=C1C2C3c4ccccc4C(C2C(=O)N1c1ccc(Cl)cc1)[n+]1ccccc13` (centres undefined), the survivor count (dose: 300.0 mg/kg/injection, schedule: Q01DX001 (ip), vehicle: other) is reported as 0 of 6.

For `COc1cc(C(=O)NOCc2cc3c(cc2Cl)OCO3)cc(OC)c1OC`, the survivor count (dose: 100.0 mg/kg/injection, schedule: Q04DX003 (ip), vehicle: saline sonified) was 6 of 6.

For `COc1ccc(Cl)cc1NC(=O)N/N=C(\C)CC(C)C`, the survivor count [2] was 6 of 6.

`COc1ccc(CN(CCN(C)C)c2ccccn2)cc1` was tested, and the survivor count (dose: 100.0 mg/kg/injection, schedule: Q04DX003 (ip), vehicle: Klucel (hydroxypropylcellulose) (HPC)) was 1 of 6 and the survivor count (dose: 200.0 mg/kg/injection, schedule: Q04DX003 (ip), vehicle: Klucel (hydroxypropylcellulose) (HPC)) was 0 of 6.

`CCNC(=O)CCl` was tested, and the survivor count [1] was 0 of 4.

For `C/C(=N/OC(=O)N(C)C)c1ccc(Cl)cc1Cl`, the survivor count (dose: 200.0 mg/kg/injection, schedule: Q01DX001 (ip), vehicle: other) was 1 of 4 and the survivor count (dose: 400.0 mg/kg/injection, schedule: Q01DX001 (ip), vehicle: other) was 0 of 4.

With `CON(C)S(=O)(=O)c1ccc([N+](=O)[O-])cc1` the survivor count (dose: 400.0 mg/kg/injection, schedule: Q01DX001 (ip), vehicle: Klucel (hydroxypropylcellulose) (HPC)) was 1 of 6.

For `CCOCCCN`, the survivor count (dose: 200.0 mg/kg/injection, schedule: Q01DX009 (ip), vehicle: saline) was 2 of 6 and the survivor count [4] was 3 of 6.

For `CC1CCCCC1C(=O)N1CCCC1` (centres undefined), the survivor count [3] was 1 of 3.

`CCCCC(CC)CNCC(CC)CCCC` (centres undefined) was tested, and the survivor count (dose: 200.0 mg/kg/injection, schedule: Q04DX013 (ip), vehicle: carboxymethylcellulose (CMC)) was 1 of 6 and the survivor count (dose: 400.0 mg/kg/injection, schedule: Q04DX013 (ip), vehicle: carboxymethylcellulose (CMC)) was 0 of 6.

In the case of `Clc1ccc(-n2cnnn2)cc1`, the survivor count [1] is reported as 3 of 6.

`CSc1nsc2nnc(N)n12` was tested, and the survivor count (dose: 300.0 mg/kg/injection, schedule: Q01DX001 (ip), vehicle: saline) was 2 of 6.

With `Cc1cc(C2=NCCN2)ccc1NC(=O)c1ccc(C(=O)Nc2ccc(C3=NCCN3)cc2C)cc1` the survivor count (dose: 120.0 mg/kg/injection, schedule: Q01DX Z (ip), vehicle: saline) was 3 of 6.

`CCNC(C)(C)C(SS(=O)(=O)O)c1ccc(Cl)s1` (centres undefined) was tested, and the survivor count [2] was 6 of 6.

`CSc1nccc(NN=C2CCCCC2)n1` was tested, and the survivor count (dose: 400.0 mg/kg/injection, schedule: Q01DX009 (ip), vehicle: Klucel (hydroxypropylcellulose) (HPC)) was 5 of 6.

For `O=C(NN1CCOCC1)c1ccc([N+](=O)[O-])s1`, the survivor count (dose: 400.0 mg/kg/injection, schedule: Q01DX005 (ip), vehicle: saline) was 1 of 4.

With `CCNCCNc1ccc(CO)c2sc3cc(Cl)ccc3c(=O)c12` the survivor count [5] was 6 of 6 and the survivor count (dose: 200.0 mg/kg/injection, schedule: Q01DX009 (ip), vehicle: Klucel (hydroxypropylcellulose) (HPC)) was 0 of 6.

`CCN(CC)CCCNC(C)=O` was tested, and the survivor count (dose: 400.0 mg/kg/injection, schedule: Q01DX009 (ip), vehicle: saline) was 6 of 6.

For `CC[C@@H](C(=O)[C@@H](C)[C@@H](O)[C@H](C)CCc1ccc(C)c(O)c1C(=O)O)[C@H]1O[C@](CC)([C@H]2CC[C@](O)(CC)[C@H](C)O2)C[C@@H]1C`, the survivor count (dose: 12.5 mg/kg/injection, schedule: Q01DX009 (ip), vehicle: Klucel (hydroxypropylcellulose) (HPC)) was 3 of 6, the survivor count (dose: 50.0 mg/kg/injection, schedule: Q01DX009 (ip), vehicle: Klucel (hydroxypropylcellulose) (HPC)) was 5 of 6 and the survivor count [5] was 0 of 6.

With `S=P(NCCCCCNP(=S)(N1CC1)N1CC1)(N1CC1)N1CC1` the survivor count (dose: 200.0 mg/kg/injection, schedule: Q01DX001 (ip), vehicle: carboxymethylcellulose (CMC)) was 5 of 6 and the survivor count (dose: 400.0 mg/kg/injection, schedule: Q01DX001 (ip), vehicle: carboxymethylcellulose (CMC)) was 4 of 6.

For `O=C1c2ccccc2-c2nc3cncnc3nc21` (tested in a mixture with another compound), the survivor count [4] was 2 of 6.

For `CN(N=O)C(=O)NC1CC2CCC1C2` (centres undefined), the survivor count (dose: 750.0 mg/kg/injection, schedule: Q01DX001 (ip), vehicle: other) was 3 of 6 and the survivor count (dose: 1000.0 mg/kg/injection, schedule: Q01DX001 (ip), vehicle: other) was 0 of 6.

`C=CCc1cc(OC)c2c(c1OC)C(=O)c1cccc(OC)c1C2=O` was tested, and the survivor count [6] was 1 of 6.

`CC(C)(SCc1ccccc1)C(NC(=O)OCc1ccccc1)C(=O)O` (centres undefined) was tested, and the survivor count (dose: 400.0 mg/kg/injection, schedule: Q04DX002 (ip), vehicle: DMSO) was 0 of 3.

In the case of `CC/C(=C/c1cccc(OC)c1OC)[N+](=O)[O-]`, the survivor count [6] is reported as 5 of 6.

For `NC(N)=N/N=C(/c1ccccc1)c1ccc(O)cc1O`, the survivor count (dose: 480.0 mg/kg/injection, schedule: Q01DX Z (ip), vehicle: saline) was 0 of 6.

`NC(=O)n1cccn1` was tested, and the survivor count (dose: 800.0 mg/kg/injection, schedule: Q01DX Z (ip), vehicle: carboxymethylcellulose (CMC)) was 2 of 6.
